# Reference: publication PMC5538625, “Perception of root‐active CLE peptides requires CORYNE function in the phloem vasculature” (EMBO Reports, 2017)
# Protein sequences, listed by entry. Tags and fused reporters are not part of them. Residues count along the entry.
# UniProt O22476, residues 24-1196: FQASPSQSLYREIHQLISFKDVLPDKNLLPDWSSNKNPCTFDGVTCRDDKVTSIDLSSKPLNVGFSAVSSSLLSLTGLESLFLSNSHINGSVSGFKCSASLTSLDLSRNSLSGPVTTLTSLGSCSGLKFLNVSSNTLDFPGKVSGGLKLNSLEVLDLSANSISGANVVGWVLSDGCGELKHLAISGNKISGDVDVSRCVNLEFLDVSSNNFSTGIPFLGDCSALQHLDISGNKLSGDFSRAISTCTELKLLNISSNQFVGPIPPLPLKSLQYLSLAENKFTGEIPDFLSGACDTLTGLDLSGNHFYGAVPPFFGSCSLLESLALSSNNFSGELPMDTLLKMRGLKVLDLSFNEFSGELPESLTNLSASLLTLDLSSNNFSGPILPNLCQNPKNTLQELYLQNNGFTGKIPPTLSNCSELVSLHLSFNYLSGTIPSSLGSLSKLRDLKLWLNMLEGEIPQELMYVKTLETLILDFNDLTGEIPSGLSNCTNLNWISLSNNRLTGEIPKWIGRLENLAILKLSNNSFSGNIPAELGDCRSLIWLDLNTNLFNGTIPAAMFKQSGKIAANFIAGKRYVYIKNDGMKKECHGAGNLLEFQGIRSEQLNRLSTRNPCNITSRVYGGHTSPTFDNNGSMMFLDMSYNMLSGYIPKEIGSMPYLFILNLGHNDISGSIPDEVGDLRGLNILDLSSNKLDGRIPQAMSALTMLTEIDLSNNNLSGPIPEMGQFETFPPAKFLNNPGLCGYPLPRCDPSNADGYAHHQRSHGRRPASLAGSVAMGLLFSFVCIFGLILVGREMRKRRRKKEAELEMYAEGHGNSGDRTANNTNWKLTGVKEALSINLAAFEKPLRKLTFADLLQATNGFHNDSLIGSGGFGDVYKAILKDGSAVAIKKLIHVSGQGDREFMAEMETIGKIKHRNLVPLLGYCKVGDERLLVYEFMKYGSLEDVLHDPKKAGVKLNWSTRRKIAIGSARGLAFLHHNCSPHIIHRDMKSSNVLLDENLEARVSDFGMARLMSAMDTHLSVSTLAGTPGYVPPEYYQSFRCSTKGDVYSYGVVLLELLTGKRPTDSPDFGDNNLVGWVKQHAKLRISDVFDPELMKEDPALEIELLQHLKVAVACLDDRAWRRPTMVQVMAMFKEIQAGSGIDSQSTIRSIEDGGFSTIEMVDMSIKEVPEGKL
# No constants are given. Whether binding was seen depends on the method and setting. For part of these data: Binding seen in cells or lysates may run through a third protein. Some entries that bind do so weakly or less than the wild type. For part of these data: Where a sequence is shown, tags or fusion partners need not be part of it.
# T1: CLV2 fused to one half of YFP (BiFC) (Arabidopsis thaliana) (UniProt O80809)
# T1 sequence: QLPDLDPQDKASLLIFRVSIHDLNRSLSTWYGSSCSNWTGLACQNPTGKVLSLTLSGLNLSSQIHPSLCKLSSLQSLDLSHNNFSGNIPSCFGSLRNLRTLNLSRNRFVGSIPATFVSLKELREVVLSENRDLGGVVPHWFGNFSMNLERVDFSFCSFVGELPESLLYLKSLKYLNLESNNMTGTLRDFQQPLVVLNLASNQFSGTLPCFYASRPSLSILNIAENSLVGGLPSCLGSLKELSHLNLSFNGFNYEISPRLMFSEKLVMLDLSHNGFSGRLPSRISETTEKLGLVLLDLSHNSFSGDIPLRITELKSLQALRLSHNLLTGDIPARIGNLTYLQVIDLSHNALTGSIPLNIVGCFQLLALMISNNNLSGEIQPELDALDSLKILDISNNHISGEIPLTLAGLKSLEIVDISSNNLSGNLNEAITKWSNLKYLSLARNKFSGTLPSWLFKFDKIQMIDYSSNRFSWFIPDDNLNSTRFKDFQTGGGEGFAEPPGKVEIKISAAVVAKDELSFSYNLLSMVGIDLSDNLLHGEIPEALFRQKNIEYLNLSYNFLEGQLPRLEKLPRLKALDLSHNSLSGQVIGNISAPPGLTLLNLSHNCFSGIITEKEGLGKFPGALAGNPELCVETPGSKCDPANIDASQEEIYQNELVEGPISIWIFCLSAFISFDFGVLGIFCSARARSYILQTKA
# T2: BAM3 extracellular domain (BAM3-ECD) (Arabidopsis thaliana) (UniProt O65440)
# T2 sequence: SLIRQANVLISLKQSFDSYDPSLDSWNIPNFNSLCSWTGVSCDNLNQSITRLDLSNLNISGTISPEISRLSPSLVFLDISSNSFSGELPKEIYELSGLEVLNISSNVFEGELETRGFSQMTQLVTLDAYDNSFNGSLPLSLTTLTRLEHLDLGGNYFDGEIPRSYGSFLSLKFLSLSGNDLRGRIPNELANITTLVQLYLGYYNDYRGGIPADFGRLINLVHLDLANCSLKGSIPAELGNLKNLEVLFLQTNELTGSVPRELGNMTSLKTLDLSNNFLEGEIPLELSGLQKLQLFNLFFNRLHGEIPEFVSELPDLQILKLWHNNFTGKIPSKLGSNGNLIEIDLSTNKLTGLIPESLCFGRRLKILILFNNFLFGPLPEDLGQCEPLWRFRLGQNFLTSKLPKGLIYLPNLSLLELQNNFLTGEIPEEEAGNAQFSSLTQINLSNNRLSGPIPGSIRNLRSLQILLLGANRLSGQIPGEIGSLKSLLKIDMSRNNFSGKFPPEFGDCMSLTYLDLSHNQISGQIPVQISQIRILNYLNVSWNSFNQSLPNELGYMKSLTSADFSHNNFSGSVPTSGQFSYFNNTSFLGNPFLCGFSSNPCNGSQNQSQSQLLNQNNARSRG
# B1: CRN fused to one half of YFP (BiFC) (protein, UniProt Q9LYU7 34-401)
# chain: TSCRRRTVKHLSTTSTSSTPLESRITSKVIVISIVSGILTGLVSALVLAFLVRSIVKFMKQTPILKGPVVFSPKITPKSLHAALSNGIQLLGSDLNGKYYKMVLDNGLVVAVKRLGSLEGVGSPESSSSKSVKRRLQKELELLAGLRHRNLMSLRAYVRESDEFSLVYDYMPNGSLEDVMNKVRTKEVELGWEIRLRVAVGIVKGLQYLHFSCETQILHYNLKPTNVMLDSEFEPRLADCGLAKIMPSSHTAVSCYSAPESSQSNRYTDKSDIFSFGMILGVLLTGRDPTHPFCEESASGGSLGQWLKHLQQSGEAREALDKTILGEEVEEDEMLMALRITIICLSDFPADRPSSDELVHMLTQLHSF
# B2: BAM3 extracellular domain (BAM3-ECD) (domain or fragment, UniProt O65440 30-651)
# chain: T2 sequence
# B3: SERK1 extracellular domain (SERK1-ECD) (domain or fragment, UniProt Q94AG2 24-213)
# chain: ASANLEGDALHTLRVTLVDPNNVLQSWDPTLVNPCTWFHVTCNNENSVIRVDLGNAELSGHLVPELGVLKNLQYLELYSNNITGPIPSNLGNLTNLVSLDLYLNSFSGPIPESLGKLSKLRFLRLNNNSLTGSIPMSLTNITTLQVLDLSNNRLSGSVPDNGSFSLFTPISFANNLDLCGPVTSHPCPGS
# B4: SERK3 extracellular domain (SERK3-ECD) (domain or fragment, UniProt Q94F62 26-220)
# chain: NAEGDALSALKNSLADPNKVLQSWDATLVTPCTWFHVTCNSDNSVTRVDLGNANLSGQLVMQLGQLPNLQYLELYSNNITGTIPEQLGNLTELVSLDLYLNNLSGPIPSTLGRLKKLRFLRLNNNSLSGEIPRSLTAVLTLQVLDLSNNPLTGDIPVNGSFSLFTPISFANTKLTPLPASPPPPISPTPPSPAGS
# Key:
# [1] = biological target: BRI1 fused to one half of YFP (BiFC) (Arabidopsis thaliana) (UniProt O22476); experiment: split reporter; BiFC, one half of YFP on each protein, transient co-expression in N. benthamiana leaf epidermal cells, with (non-fluorescent) CLV2-HA co-expressed
# [2] = biological target: T1, CLV2 fused to one half of YFP (BiFC) (Arabidopsis thaliana); experiment: split reporter; BiFC, one half of YFP on each protein, transient co-expression in N. benthamiana leaf epidermal cells, without CLV2-HA (CLV2 + CRN also with co-expressed BAM3-mTFP1)
# [3] = biological target: T2, BAM3 extracellular domain (BAM3-ECD) (Arabidopsis thaliana); experiment: SEC; analytical gel filtration without peptide, ectodomains stand-alone or in combination (equimolar); Superdex Increase 200, 20 mM citrate pH 5, 150 mM NaCl; both purified
# [4] = biological target: SERK1 extracellular domain (SERK1-ECD) (Arabidopsis thaliana) (UniProt Q94AG2); experiment: as above
# [5] = biological target: T2, BAM3 extracellular domain (BAM3-ECD) (Arabidopsis thaliana); experiment: condition: 82 μM SERK1-ECD titrated into 8.2 μM BAM3-ECD + 25 μM CLE45; ITC; SERK1-ECD (82 μM) titrated into BAM3-ECD (8.2 μM) + CLE45 (25 μM); Nano ITC, 25°C, 20 mM sodium citrate pH 5, 150 mM NaCl; both purified
# [6] = biological target: T2, BAM3 extracellular domain (BAM3-ECD) (Arabidopsis thaliana); experiment: condition: 100 μg of SERK1‐ECD and equimolar BAM3‐ECD; SEC; analytical gel filtration without peptide, ectodomains stand-alone or in combination (equimolar); Superdex Increase 200, 20 mM citrate pH 5, 150 mM NaCl; both purified
# [7] = biological target: T2, BAM3 extracellular domain (BAM3-ECD) (Arabidopsis thaliana); experiment: condition: 100 μg of SERK1‐ECD and equimolar BAM3‐ECD with 25 μM CLE45; SEC; analytical gel filtration in the presence of 25 μM CLE45, equimolar ectodomains, 10 min incubation; Superdex Increase 200, 20 mM citrate pH 5, 150 mM NaCl; both purified
# [8] = biological target: T2, BAM3 extracellular domain (BAM3-ECD) (Arabidopsis thaliana); experiment: condition: 100 μg of SERK3‐ECD and equimolar BAM3‐ECD with 25 μM CLE45; SEC; analytical gel filtration in the presence of 25 μM CLE45, equimolar ectodomains, 10 min incubation; Superdex Increase 200, 20 mM citrate pH 5, 150 mM NaCl; both purified
binder,measurement,setting,value
B1,binding,[1],no binding
same,binding,[2],binds
B2,binding,[3],no binding
B3,binding,[4],no binding (tested: 100 μg of SERK1‐ECD)
same,binding,[5],no binding
same,binding,[6],no binding
same,binding,[7],no binding
B4,binding,[3],no binding
same,binding,[8],no binding
